Test results taken from publication PMC12218921, “An adaptive peptide-binding site in ubiquitin receptor hRpn13 revealed by structural studies” (Nature Communications, 2025).
No constants are given. Whether binding was seen depends on the method and setting. Some binding calls cover weakened binding; strength is not graded here.

Sequences of proteins named here, by UniProt entry; tags and fusion partners are left off. A change or cut given only in a name is not applied to a line headed by its entry. A line that says so, or that is headed by a name, gives the form on record, which may keep a tag or linker.
hRpn13_ΔMTT (Q16186, form named): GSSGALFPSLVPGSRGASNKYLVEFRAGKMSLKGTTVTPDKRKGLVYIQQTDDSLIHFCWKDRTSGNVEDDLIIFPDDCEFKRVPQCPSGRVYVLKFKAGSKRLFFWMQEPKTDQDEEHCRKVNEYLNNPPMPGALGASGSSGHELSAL

T1: TAMRA-labeled hRpn2 (940–953) (human)
T1 sequence (peptide, TAMRA (5-carboxytetramethylrhodamine) attached; position not stated): QEPEPPEPFEYIDD


Tests used:
hRpn13_ΔMTT (human) = hRpn13_ΔMTT (human) (UniProt Q16186); test: NMR titration; 1H-15N HSQC of 0.1 mM 15N-labeled hRpn13_ΔMTT alone and with unlabeled ligand (peptides at varying molar ratios up to 20-fold excess; hRpn2 (940-953) or ubiquitin equimolar, alone or together with 20-fold EDGEGEE; K48-diUb at 4:1, 2:1 and 1:1 hRpn13 to diUb); NMR buffer (20 mM sodium phosphate pH 6.5, 50 mM NaCl, 1 mM TCEP, 10% D2O), 25 °C, 600 MHz; both purified
[1] = biological target: T1, TAMRA-labeled hRpn2 (940–953) (human); test: fluorescence polarisation; control: unlabeled peptides added to TAMRA-hRpn2 (940–953) without hRpn13 present; both purified

binding (hRpn13_ΔMTT (human))	binding [1]	Binder
–	no binding	QEPEPPEPFEYIDD [hRpn2 (940–953)]
–	no binding	PPEPFEYIDD [hRpn2 (944–953)]

The next lines start with the binder.

Binder	binding (hRpn13_ΔMTT (human))	binding [1]
GPGSMTT [ENT peptide (GPGSMTT)]	binds weakly	no binding
EDGEGEE [EDGEGEE peptide]	binds weakly	no binding
GPGSSTT [ENT_M1S peptide (GPGSSTT)]	binds weakly	–
